These are yes or no findings as the source states them, for the method shown. Binding seen in cells or lysates may run through a third protein. Some binding calls cover weakened binding; strength is not graded here.
How the values were obtained:
[1] = biological target: Olfactomedin-4 (OLFM4) (UniProt Q6UX06); experiment: co-IP; cell lysates (cells not stated); forward IP with the OLFM4 antibody, reverse IP with the MYH9 antibody; Protein A/G magnetic beads; Western Blot
[2] = biological target: Myosin heavy chain 9 (MYH9) (human (endogenous in GES-1)) (UniProt P35579); experiment: as above

The chains behind the UniProt entries cited, without tags or fusion partners. Residues count along the entry.
UniProt Q6UX06, residues 21-510: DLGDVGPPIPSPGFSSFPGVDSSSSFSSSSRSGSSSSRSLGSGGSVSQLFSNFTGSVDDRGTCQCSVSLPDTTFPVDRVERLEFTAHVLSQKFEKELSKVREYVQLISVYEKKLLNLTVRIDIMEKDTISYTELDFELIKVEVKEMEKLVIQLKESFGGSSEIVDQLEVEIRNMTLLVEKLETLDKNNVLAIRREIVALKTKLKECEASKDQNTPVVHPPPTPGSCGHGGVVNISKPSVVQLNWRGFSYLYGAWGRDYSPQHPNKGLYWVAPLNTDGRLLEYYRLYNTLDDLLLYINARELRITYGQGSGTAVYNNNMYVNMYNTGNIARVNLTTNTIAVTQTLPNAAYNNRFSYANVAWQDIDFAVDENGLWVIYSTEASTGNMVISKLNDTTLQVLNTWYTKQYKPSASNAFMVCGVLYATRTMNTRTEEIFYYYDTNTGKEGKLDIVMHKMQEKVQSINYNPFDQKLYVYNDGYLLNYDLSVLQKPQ
UniProt P35579: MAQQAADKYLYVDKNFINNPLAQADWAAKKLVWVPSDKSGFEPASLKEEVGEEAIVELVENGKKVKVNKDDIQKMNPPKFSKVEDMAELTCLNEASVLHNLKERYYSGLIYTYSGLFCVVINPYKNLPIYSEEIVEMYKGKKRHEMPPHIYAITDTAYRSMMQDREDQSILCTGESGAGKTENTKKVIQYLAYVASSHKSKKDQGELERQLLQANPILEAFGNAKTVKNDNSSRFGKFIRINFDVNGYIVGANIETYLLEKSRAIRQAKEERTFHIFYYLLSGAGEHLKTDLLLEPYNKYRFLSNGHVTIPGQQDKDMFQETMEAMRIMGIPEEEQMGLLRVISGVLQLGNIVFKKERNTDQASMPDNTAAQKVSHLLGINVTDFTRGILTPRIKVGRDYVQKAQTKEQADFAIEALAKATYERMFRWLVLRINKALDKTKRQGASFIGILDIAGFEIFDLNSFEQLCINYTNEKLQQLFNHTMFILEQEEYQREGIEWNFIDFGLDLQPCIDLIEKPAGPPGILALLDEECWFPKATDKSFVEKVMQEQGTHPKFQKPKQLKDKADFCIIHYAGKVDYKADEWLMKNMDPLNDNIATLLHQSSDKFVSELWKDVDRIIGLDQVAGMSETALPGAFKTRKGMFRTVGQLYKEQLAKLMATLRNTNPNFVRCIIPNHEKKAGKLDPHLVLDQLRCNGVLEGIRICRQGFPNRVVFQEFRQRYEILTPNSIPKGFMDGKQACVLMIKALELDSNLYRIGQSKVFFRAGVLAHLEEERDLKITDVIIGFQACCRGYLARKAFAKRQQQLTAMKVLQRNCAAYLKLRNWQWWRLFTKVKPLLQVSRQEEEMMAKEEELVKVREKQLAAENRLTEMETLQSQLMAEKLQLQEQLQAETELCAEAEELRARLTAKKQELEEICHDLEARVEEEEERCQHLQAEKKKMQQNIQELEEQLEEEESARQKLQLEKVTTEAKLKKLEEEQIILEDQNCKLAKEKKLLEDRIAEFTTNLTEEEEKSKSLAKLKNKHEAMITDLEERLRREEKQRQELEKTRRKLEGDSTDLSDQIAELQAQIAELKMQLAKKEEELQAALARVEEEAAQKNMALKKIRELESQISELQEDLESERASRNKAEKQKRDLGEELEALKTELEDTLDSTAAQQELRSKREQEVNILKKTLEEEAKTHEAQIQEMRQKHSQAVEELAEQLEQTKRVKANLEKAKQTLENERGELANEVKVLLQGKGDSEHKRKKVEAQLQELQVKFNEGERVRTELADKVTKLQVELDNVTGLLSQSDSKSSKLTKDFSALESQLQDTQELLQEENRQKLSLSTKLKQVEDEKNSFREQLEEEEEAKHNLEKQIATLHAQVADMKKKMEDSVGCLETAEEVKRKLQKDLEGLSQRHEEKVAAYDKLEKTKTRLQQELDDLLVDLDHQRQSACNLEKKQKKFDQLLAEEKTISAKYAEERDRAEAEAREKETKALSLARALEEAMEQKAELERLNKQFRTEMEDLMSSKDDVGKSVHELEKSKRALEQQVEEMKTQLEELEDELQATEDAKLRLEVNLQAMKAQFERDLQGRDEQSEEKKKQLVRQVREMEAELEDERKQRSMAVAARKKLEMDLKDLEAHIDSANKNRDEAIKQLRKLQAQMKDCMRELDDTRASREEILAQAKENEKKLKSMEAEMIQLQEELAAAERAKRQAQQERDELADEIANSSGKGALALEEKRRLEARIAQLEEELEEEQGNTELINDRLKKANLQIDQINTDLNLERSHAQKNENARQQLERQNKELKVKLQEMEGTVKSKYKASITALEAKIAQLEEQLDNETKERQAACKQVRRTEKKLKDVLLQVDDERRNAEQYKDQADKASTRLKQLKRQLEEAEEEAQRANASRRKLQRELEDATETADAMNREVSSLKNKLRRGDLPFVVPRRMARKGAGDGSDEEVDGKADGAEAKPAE

Row | Substance | binding [1] | binding [2]
1 | Myosin heavy chain 9 (MYH9) (from UniProt P35579 1-1960) | binds | 
2 | Olfactomedin-4 (OLFM4) (from UniProt Q6UX06 21-510) |  | binds
